Patent publication US20220184082A1, “CANCER THERAPY USING 3,5-DISUBSTITUTED BENZENE ALKYNYL COMPOUND AND PEMBROLIZUMAB” (TAIHO PHARMACEUTICAL CO., LTD., priority 2019, published 2022)

Test system: mouse breast cancer cell line 4T1
Conditions: 4T1-implanted BALB/cAJcl mouse; oral daily 14 days, 15 or 30 mg/kg/day; Day 15; Student's t-test P<0.01

SMILES: C=CC(=O)N1CC[C@H](n2nc(C#Cc3cc(OC)cc(OC)c3)c3c(N)ncnc32)C1 [compound 1, (S)-1-(3-(4-amino-3-((3,5-dimethoxyphenyl)ethynyl)-1H-pyrazolo[3,4-d]pyrimidin-1-yl)pyrrolidin-1-yl)prop-2-en-1-one]
- MDSCs (CD11b+/Gr-1+ cells) in the spleen lymphocyte fractions compared with non-drug administration control: significant reduction
